Results reported in US6368852B1, “Peptide capable of inducing immune response to human gastric cancer and agent for preventing or treating human gastric cancer, containing the peptide” (Ajinomoto Co., Inc., priority 1995, dated 2002).
Part of at least one peptide drawing is inferred or uncertain, most often the ends. Where no end group is shown, it is not given here.

Test system: Tc-HST-2 cells with HST-2 cells expressing HLA-A31 antigen as target cells
Assay: CTL assay using a TNF-releasing method (Wehi164/MTT)
Assay type: cell-based, human
Conditions: peptide final concentration 10 μM, 1 μM or 0.1 μM; HST-2 target cells; target cells to CTL 1:100; 12 hours
Method: That is, in the TNF-releasing method, the HLA-A31-positive HST-2 or KG-1 cell is mixed with the peptide of the present invention, and the mixture is incubated at 37° C. for 3 hours. Then, Tc-HST-2 cells are added thereto, and the resulting mixture is further incubated for 12 hours. The activity of any TNF released in the supernatant is measured to detect the CTL inducibility.
The TNF activity can be measured by the method described in Immunogenetics, vol. 35, p. 145 (1992).
That is, TNF-sensitive Wehi164 cells are mixed with a test sample, and the mixture is incubated for 24 hours. […] After any formazan converted within mitochondria is dissolved in acid propanol, the amount thereof is measured in terms of an absorbance at OD570 to detect the TNF activity. […]
After 12 hours of incubation, 30 μl of the supernatant formed was collected, and the TNF activity released in the supernatant was measured to detect the CTL inducibility. The TNF activity was measured by the following method.
That is, 7×10^4 Wehi164 cells which are TNF-sensitive cells were suspended in 120 μl of the solution, and 30 μl of the above-obtained supernatant were added thereto. […] Then, the absorbance was measured at a wavelength of 570 nm to measure the TNF activity.

YSWMDISCWI [Peptide 1, Tyr Ser Trp Met Asp Ile Ser cys Trp Ile]
CTL inducibility of Tc-HST-2 (TNF activity released in the supernatant): CTL inducibility of TC-HST-2 was identified
